According to PubChem BioAssay AID662 (National Center for Advancing Translational Sciences (NCATS), 2007):
Some of the results follow. Further columns of the screen follow, without active or inactive calls. The list favours compounds with an active or inconclusive main result. Words in brackets tell the shape of the fitted curve; partial curves, single points and poor fits give uncertain potencies.

Assay: Cell signaling CRE-BLA (Fsk stim)
Settings: CHO CRE-bla reporter (cAMP response element driving beta-lactamase), forskolin EC10, beta-lactamase ratio; measured here: 460 nm blue channel
Outline: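 CRE-bla CHO reporter cells treated with compound titration plus EC10 NKH 477 (water-soluble forskolin), incubated 3 h at 37 °C; CCF4 loading 2 h at room temperature, 460/530 nm emission ratio read, AC50 values derived for positive or negative modulators.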
In the case of `COC(=O)c1ccc(NC(=O)CN2C(=O)CCC2=O)cc1`, the AC50 was 3.98 µM [falling, single point].
For `CCNc1ncc2nc(-c3ccc(F)cc3)c(=O)n(-c3ccccc3)c2n1`, the AC50 was 3.16 µM [rising, partial curve].
For `Cc1ccc2[nH]c(=O)c(CN(CCCN3CCOCC3)C(=O)Nc3cccc(Cl)c3)cc2c1`, the AC50 was 12.6 µM [rising, partial curve].
For `CC(=O)Nc1cc(C(=O)N2CCCC2)ccc1S(=O)(=O)c1ccc(C)cc1`, the AC50 was 0.00398 µM [falling, full curve, poor fit].
For `CCOC(=O)c1c(NC(=O)C2CCN(S(=O)(=O)c3cccs3)CC2)sc(C)c1C`, the AC50 was 1 µM [rising, full curve, poor fit].
With `Nc1ncn(C(=O)c2ccco2)n1` the AC50 was 1.58 µM [falling, full curve].
For `Cc1cc(C)c(NC(=O)Cn2c(=O)n(Cc3ccco3)c(=O)c3ccccc32)c(C)c1`, the AC50 was 0.158 µM [falling, full curve, poor fit].
For `CCN(CC)S(=O)(=O)c1ccc2c(c1)c(=O)c(C(=O)NCCN(C)CCc1ccccc1)cn2C`, the AC50 was 12.6 µM [rising, partial curve].
For `Cc1nc2cc(C(=O)OCC(=O)N(CC(C)C)C3CCS(=O)(=O)C3)ccc2n1-c1ccccc1` (configuration not stated), the AC50 was 10 µM [rising, partial curve].
With `COc1cccc(Nc2ncc3ncc(=O)n(CCC#N)c3n2)c1` the AC50 was 12.6 µM [rising, single point].
For `CCOc1cccc(/C(O)=C2/C(=O)C(=O)N(Cc3ccco3)C2c2ccncc2)c1` (configuration not stated), the AC50 was 0.0251 µM [falling, full curve, poor fit].
For `CCOC(=O)C1=C(C)Nc2nc(C)nn2C1c1ccc(OC)c(OC)c1` (configuration not stated), the AC50 was 10 µM [rising, partial curve].
For `Cc1ccccc1-c1ccc2ncnc(N(C)C)c2c1`, the AC50 was 25.1 µM [rising, single point].
For `Cc1cc(C)n(-c2nnc3n2N=C(c2ccccc2)CS3)n1`, the AC50 was 3.16 µM [rising, single point].
In the case of `COc1ccc(NC(=O)CCc2nc(-c3ccc(C)cc3)no2)c(OC)c1`, the AC50 was 2 µM [falling, full curve, poor fit].
For `CC1=CC(C)(C)N2C(=O)C3(C(C#N)=C(N)Oc4cc(O)ccc43)c3cccc1c32` (configuration not stated), the AC50 was 2 µM [rising, full curve].
In the case of `Cc1noc(NS(=O)(=O)c2cccc3c(N(C)C)cccc23)c1C`, the AC50 was 0.000794 µM [falling, full curve, poor fit].
For `Cc1cc(C(=O)OCC(=O)c2c(N)n(C)c(=O)n(C)c2=O)c(C)n1-c1ccccc1`, the AC50 was 10 µM [rising, single point].
In the case of `Cc1ccc(NC(=O)C2CCCN(S(=O)(=O)c3cccs3)C2)cc1` (configuration not stated), the AC50 was 0.1 µM [falling, single point].
With `CCC(c1nnnn1Cc1ccco1)N(CCN1CCOCC1)Cc1cc2cc(C)ccc2[nH]c1=O` (configuration not stated) the AC50 was 25.1 µM [falling, single point].
For `CCN1CCN(c2oc(COc3ccc(-c4ccccc4)cc3)nc2C#N)CC1`, the AC50 was 20 µM [rising, single point].
For `Cn1c(=O)c2c(nc(NCCc3ccccc3)n2Cc2ccc(F)cc2)n(C)c1=O`, the AC50 was 5.01 µM [rising, partial curve].
For `COCCOC(=O)c1c(C)oc2ccc(NS(=O)(=O)c3ccc(F)cc3)cc12`, the AC50 was 10 µM [rising, partial curve].
With `Cc1c(NC(=O)c2c(F)cccc2F)c(=O)n(-c2ccccc2)n1C` the AC50 was 0.0794 µM [falling, full curve].
In the case of `CCOC(=O)C1=C(C)NC(SCC(=O)O)=NC1c1ccccc1` (configuration not stated), the AC50 was 12.6 µM [rising, single point].
With `CCCc1cc(=O)[nH]c(SCCOc2ccc(Cl)cc2)n1` the AC50 was 25.1 µM [rising, single point].
In the case of `Cc1cc2nc(-c3ccc(NC(=O)c4cccnc4)cc3)oc2cc1C`, the AC50 was 0.126 µM [falling, single point].
In the case of `COC(=O)C1=C(N)Oc2cc(C)n(CC3CCCO3)c(=O)c2C1c1ccccc1` (configuration not stated), the AC50 was 3.98 µM [falling, partial curve].
In the case of `N#Cc1ccccc1Cn1c(=O)n(Cc2ccc(C(=O)NCc3ccco3)cc2)c(=O)c2ccccc21`, the AC50 was 12.6 µM [rising, single point].
For `CCOC(=O)c1cc2sccc2n1CC(=O)c1ccc2c(c1)OCCO2`, the AC50 was 10 µM [falling, partial curve].
In the case of `COc1ccc(-n2c(Cc3cccn3C)nnc2SCC(=O)Nc2cc(C)cc(C)c2)cc1`, the AC50 was 15.8 µM [falling, single point].
In the case of `COc1ccc(C2CC(=O)C3=C(C2)Nc2ncnn2C3c2ccccc2C)c(OC)c1` (configuration not stated), the AC50 was 10 µM [rising, single point].
For `Cc1noc(C)c1-c1ccc2ncnc(NCc3cccs3)c2c1`, the AC50 was 2.51 µM [rising, full curve].
With `COc1cc(C#N)ccc1OCC(=O)c1ccc2c(c1)OCCO2` the AC50 was 0.631 µM [falling, partial curve, poor fit].
In the case of `CN(C)c1nc(SCC#N)nc(N(C)C)n1`, the AC50 was 12.6 µM [rising, single point].
For `O=C(CSc1ccc2nnc(-c3ccccn3)n2n1)NCC1CCCO1` (configuration not stated), the AC50 was 10 µM [rising, single point].
With `COc1ccc(Cn2c(C3CC3)nc3ccc(NC(=O)c4ccco4)cc3c2=O)cc1` the AC50 was 12.6 µM [rising, partial curve].
With `CCOc1ccccc1C1CC(=O)Nc2cc3c(cc21)OCO3` (configuration not stated) the AC50 was 12.6 µM [rising, single point].
In the case of `Cc1cc(C)n(-c2ccc(C(=O)NCc3cccs3)cc2)n1`, the AC50 was 0.0251 µM [rising, full curve, poor fit].
For `CCOc1cccc2cc(-c3csc(NC(=O)CCC(=O)N4CCN(C)CC4)n3)c(=O)oc12`, the AC50 was 0.631 µM [rising, full curve].
With `Cc1cc(C)n(-c2ccc(F)cc2)c(=O)c1C(=O)O` the AC50 was 0.398 µM [falling, full curve].
For `Cc1cc(CN2CCN(CCC#N)CC2)c(O)c(C2(C)CCCCC2)c1`, the AC50 was 10 µM [falling, partial curve].
